Our source for the binding signal values is article PMC7819943, “Rice protein-binding microarrays: a tool to detect cis-acting elements near promoter regions in rice”.

This is one part of the list.

The target of the assay is T1, OsSMF1 (Oryza sativa, UniProt Q6ZLB0 1-436).
T1 sequence: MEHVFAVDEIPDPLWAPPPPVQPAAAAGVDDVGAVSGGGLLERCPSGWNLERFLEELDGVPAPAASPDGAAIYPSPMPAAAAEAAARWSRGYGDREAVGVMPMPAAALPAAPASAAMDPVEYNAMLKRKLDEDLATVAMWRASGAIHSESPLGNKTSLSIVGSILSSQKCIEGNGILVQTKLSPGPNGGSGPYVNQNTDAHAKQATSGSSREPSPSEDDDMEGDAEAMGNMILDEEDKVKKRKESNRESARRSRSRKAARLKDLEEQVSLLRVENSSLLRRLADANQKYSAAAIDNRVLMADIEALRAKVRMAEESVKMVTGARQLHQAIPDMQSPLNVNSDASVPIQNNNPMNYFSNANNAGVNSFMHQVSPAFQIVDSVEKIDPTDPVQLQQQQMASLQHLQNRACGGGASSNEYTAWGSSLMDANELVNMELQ
Briefly: protein-binding microarray (RPBM); PBS, 2% BSA, 51.3 ng/ul salmon testes DNA, 50 uM zinc acetate, 200 nM TF, 25 C, 1 h; high values mean tight binding. To be noted: protein: recombinant; tags: N-terminal polyhistidine and DsRed monomer fusion (pET32a); chain copies: 2; label: CyDye5-dUTP incorporated in the synthesized complementary strand; 3' TTTTT single-stranded linker to array surface; dsDNA, one strand shown. The method in brief:
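The binding signal is fluorescence intensity per feature, in arbitrary units, read on an Axon 4000B scanner. Polyhistidine- and DsRed-tagged transcription factors (N-terminal fusions) from E. coli BL21-CodonPlus were purified on Ni–NTA and applied at 200 nM for 1 h at 25 °C to a double-stranded, BSA-blocked custom Agilent array in buffer with 50 µM zinc acetate.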
For “TGGTGTGTGCTTGCTGCTGCTGCTGCTTCAGTTCTCGAGTCGGAGTCACCTAGTGCAG”, the binding signal was 5480 fluorescence intensity (a.u.).
With “ACACATTAGTTTGGTGATATCAGCTGGCTGTATCTATCTTCGGAGTCACCTAGTGCAG” the figure was 3590 fluorescence intensity (a.u.).
Consider “TCTCCCTTGGCGGCAAGCCACGTACTCCCTCCATCATTTACGGAGTCACCTAGTGCAG”, for which the binding signal was 5620 fluorescence intensity (a.u.).
As to “GGTCCGGTGTGACACTGTGACCCCGCCGTAACCCCGTAACCGGAGTCACCTAGTGCAG”, the binding signal is 4060 fluorescence intensity (a.u.).
Turning to “GGAGAGAGAAATAGTTGTGTAAGTACGGTTCTACCCTTTGCGGAGTCACCTAGTGCAG”, the binding signal is 5640 fluorescence intensity (a.u.).
For “TATCTGAACTCTTGACGTGTTATGAACTCTCGTAGGACCTCGGAGTCACCTAGTGCAG”, the binding signal was 6790 fluorescence intensity (a.u.).
As for “CCGCCATTGCGTGTTTTCCTACGCAACCTTTGTCTATAAACGGAGTCACCTAGTGCAG”, the binding signal was 5370 fluorescence intensity (a.u.).
The figure for “ACCGCCGCTGCCTCCTCTTGTCACCCCACGCCACAGCGATCGGAGTCACCTAGTGCAG” is 3660 fluorescence intensity (a.u.); for “GTTGTTGCTGAGTTTCTCTCTGTGTCAGATAGTAGCCGTTCGGAGTCACCTAGTGCAG” it is 3900 fluorescence intensity (a.u.).
“AGTACATTAAATCGGCACAAGATATGATTACGTGTGTTATCGGAGTCACCTAGTGCAG”: the binding signal was 5070 fluorescence intensity (a.u.).
As to “CCCCACCGACGGCGTGCAAAGCGGCCACCCAGCTCGACGCCGGAGTCACCTAGTGCAG”, the binding signal was 8120 fluorescence intensity (a.u.).
On to “TGCGGCAGATGGGGAGAGCTCTCGGCGTGTCCACGTAGGACGGAGTCACCTAGTGCAG”, for which the binding signal was 8780 fluorescence intensity (a.u.).
Take “CCCTCCGCCGTTGCTGCCGCGCTCGACGTCATTGTCGCCACGGAGTCACCTAGTGCAG”: the binding signal was 6520 fluorescence intensity (a.u.).
As to “TGTGGCATGCCACATACACGCCACGTAGGATCCTGAAGGGCGGAGTCACCTAGTGCAG”, the binding signal is 18000 fluorescence intensity (a.u.).
With “TGTTGGTGAGCCTACAGTTCATGACGATGCTGGCCAGATGCGGAGTCACCTAGTGCAG” the figure was 3480 fluorescence intensity (a.u.).
The figure for “TTGCGCGCGCCACCGCCACCGCAACCGCCGCCGCAATGTCCGGAGTCACCTAGTGCAG” is 3990 fluorescence intensity (a.u.); for “ATGTCGAAAGGCCTATATGGGCCAGATGATGTGTCCAGGGCGGAGTCACCTAGTGCAG” it is 34600 fluorescence intensity (a.u.).
As for “CTATTAGAATATTTTATAATAGTTAATAGTTAATTAATTACGGAGTCACCTAGTGCAG”, the binding signal is 39700 fluorescence intensity (a.u.).
For the sequence “ACCTGATGAAACAATATCAAAACAAAGATATATATGCATACGGAGTCACCTAGTGCAG”, the binding signal was 3290 fluorescence intensity (a.u.).
As for “CAGTATCGCTAATTAATGACATCAACACTAATCAGCGTTGCGGAGTCACCTAGTGCAG”, the binding signal was 3190 fluorescence intensity (a.u.).
Regarding “CCGACAGGCGCGTCGCCGCCACGCGCGCCCCGGACCCGGCCGGAGTCACCTAGTGCAG”, the binding signal was 4200 fluorescence intensity (a.u.).
As to “AGTAAATCCACATCAACAGCATTCTGTTGTTAACTCTGCCCGGAGTCACCTAGTGCAG”, the binding signal was 6820 fluorescence intensity (a.u.).
On to “TTAATAGTACATAGTTAAAAGTTAACTCAGTGTTGTACAACGGAGTCACCTAGTGCAG”, for which the binding signal is 3230 fluorescence intensity (a.u.).
For “TAGCCACAGTTTTGCTGACGTTCTCTTTTATCTGTTTGCTCGGAGTCACCTAGTGCAG”, the binding signal was 6320 fluorescence intensity (a.u.).
As to “GTGTTATTGTGTACTTTAACGTTGATTATATGACTGGACCCGGAGTCACCTAGTGCAG”, the binding signal was 6470 fluorescence intensity (a.u.).
As to “CACCCGACTCAGATACCCGAATCCACGTCAGCCCAGAGCCCGGAGTCACCTAGTGCAG”, the binding signal is 14300 fluorescence intensity (a.u.).
Turning to “GATTTTGTCCTATGTGGCTGCTGACTCAGCGTGGGACCCACGGAGTCACCTAGTGCAG”, the binding signal was 30200 fluorescence intensity (a.u.).
The figure for “AGACCGCTCGCGCGTACGTGACGCGATCGGGCAGCGCGGGCGGAGTCACCTAGTGCAG” is 4060 fluorescence intensity (a.u.); for “GTACGTGCATGTATTTATAGGGATGAGTGTGCACGTGTTGCGGAGTCACCTAGTGCAG” it is 4370 fluorescence intensity (a.u.); for “CTCGCGTAAGCAATGACGCAAGGCAATAGCAGCCACAGACCGGAGTCACCTAGTGCAG” it is 5640 fluorescence intensity (a.u.).
On to “CACAGCCTAAGTATGCATATAAATGAGATAAACTATTAATCGGAGTCACCTAGTGCAG”, for which the binding signal is 21200 fluorescence intensity (a.u.).
The figure for “CTAGATTTATTAATATCGATATGAATGTGGAAAATGCTAGCGGAGTCACCTAGTGCAG” is 18100 fluorescence intensity (a.u.).
The figure for “CACTCTTCTCATCTTCCTCGGCTGACACTTCTTAGGGTAGCGGAGTCACCTAGTGCAG” is 3320 fluorescence intensity (a.u.); for “AATTTAGCTCCAATTATGTCCAACTCATCTATAACTTACTCGGAGTCACCTAGTGCAG” it is 3300 fluorescence intensity (a.u.).
Turning to “ATATGACCAAAGTATAGGACTCCATCGACATGTGATTAATCGGAGTCACCTAGTGCAG”, the binding signal was 3420 fluorescence intensity (a.u.).
Consider “GGCCTCAGTACAGCACAAGCTCTCCACTATACTGTAGTAGCGGAGTCACCTAGTGCAG”, for which the binding signal is 3180 fluorescence intensity (a.u.).
In the case of “GCCAGCCACTGGCTAAACGCCTAGTTGTGAAGAGAGAACGCGGAGTCACCTAGTGCAG”, the binding signal was 3290 fluorescence intensity (a.u.).
“GGCATGGCACCATATTATTTGCTTGAGGATTATTGTTTAGCGGAGTCACCTAGTGCAG”: the binding signal was 8510 fluorescence intensity (a.u.).
Regarding “AATTAATATGTCATTAGCACATATAGGTTACTATAGAACTCGGAGTCACCTAGTGCAG”, the binding signal was 3640 fluorescence intensity (a.u.).
On to “TTAACAGAAACACATGCATTAATATGTGGCAGCATAGATGCGGAGTCACCTAGTGCAG”, for which the binding signal is 4810 fluorescence intensity (a.u.).
On to “GTAGCACTGTCGTCACCCGGCGCTGGATGGAGTCCGGCCCCGGAGTCACCTAGTGCAG”, for which the binding signal was 3830 fluorescence intensity (a.u.).
The figure for “ATGAAATGGACCTCAAGATCGAGTCATGACAAGACAACGGCGGAGTCACCTAGTGCAG” is 4150 fluorescence intensity (a.u.).
